Test results from US20100285022A1.

B1: human monoclonal antibody 2D10 (antibody, V domains shown)
VH: QVQLVQSGPEVKKPGASVRLSCKASGYVFTNYGVSWVRQAPGQGLEWMGWSSPYNGNTYYAQKLKARVTMTTDTSTNTAYMELRSLRSDDTAVYYCGRDMLGVVQAVAGPFDSWGQGTLVTVSS
VL: DTPMTQSPSSVSASVGDRVTISCRASQGISNSLAWYQQKLGKAPQLLIYAASSLQSGVPSRFSGSGSGTDFTLTISSLQPEDFATYYCQQTNTFPFTFGPGTKVEVR
B2: human monoclonal antibody 1F12 (antibody, V domains shown)
VH: QVQLVQSESEVKKPGASVTVSCKPSGYTFNTYYIHWVRQAPGQGLEWMGVINPSGGSTTYTQRFQDRVTMTTDTSTNTIYMDLTSLRSDDTAMYYCVRGSNLLPHLWEWKPSHFDSWGQGTLVTVSS
VL: EIVLTQSPGTLSLSPGERATLSCRASQSITNNYLAWYQQKPGQAPRLLIYDSFSRATGIPERFSGSGSGTDFTLTISRLEPEDFAVYYCQHYVRSPLTFGPGTKVEIK
B3: human monoclonal antibody 1G1 (antibody, V domains shown)
VH: QVHLVQSGVEVKKPGASVRVSCKASGYTFATYGITWVRQAPGRGLEWVGWITPYNDRTSYAQIFHGRVTMTTDTSTNTAYMELRSLRSDDTAMYYCARNHCNFYHDFWSGLDYWGQGTLVSVSS
VL: SFELTQPPSVSVSPGQTARITCSGDALPKQYVYWYQQKPGQAPVLVIYKTTERPSGIPERFSDSSSGTTVTLTISAAQAEDEADYYCQSVDSSGTYVFGIGTKVTVL

target: RSV G protein of strain B (Gb protein) (respiratory syncytial virus, strain B); experiment: reactivity column of Table 1

Row | Binder | binding
1 | B1 | binds
2 | B2 | binds
3 | B3 | binds

These are yes or no findings as the source states them, for the method shown. Binding calls can cover weak binding; strength is not graded here.
